These are yes or no findings as the source states them, for the method shown. Binding seen in cells or lysates may run through a third protein. Some binding calls cover weakened binding; strength is not graded here. For part of these data: Where a sequence is shown, tags or fusion partners need not be part of it.
B1: RMND1, transfected (protein, UniProt Q8CI78 6-450)
chain: LHTLASLHSISAKAHQCQRLTWLTLRPLRKSESTTCHNGLTIQQHLHSFFPSITADSLNKPEILEMSRITSDTSRLFPLNAVHWLDGKEHWPSMHPFGTHRSMTHKPNLLCSKWFIKAVKRHHSSVSNEALVPKQDLPQIKRPLKASRTRQPSRTNLPDLSVNEDLMQCTAFATADEYHLGSLSQELVSCGYVEVTSLPRDAANILVMGVESSAKEGDPGTIFLFREGAAVFWNVKEKTMKHVMQVLERHETQPYEVALVHWENEELNYIKTEGQSKLHRGEIKLNSELDLDDAILEKFAFSNALCLSVKLAIWEATLDKFIESIQSIPEALKAGKKVKLSHKEVMQKMGELFALRHRINLSSDFLITPDFYWDRANLEELYDKTCQFLSITRRVKVMNEKLQHCMELTDLMRNHLNEKRALRLEWMIVILITIEVMFELGRVFF
B2: Mouse HSD17B4 in pCMV-Myc, transfected (enzyme, UniProt P51660 1-735)
chain: MASPLRFDGRVVLVTGAGGGLGRAYALAFAERGALVIVNDLGGDFKGIGKGSSAADKVVAEIRRKGGKAVANYDSVEAGEKLVKTALDTFGRIDVVVNNAGILRDRSFSRISDEDWDIIHRVHLRGSFQVTRAAWDHMKKQNYGRILMTSSASGIYGNFGQANYSAAKLGILGLCNTLAIEGRKNNIHCNTIAPNAGSRMTETVLPEDLVEALKPEYVAPLVLWLCHESCEENGGLFEVGAGWIGKLRWERTLGAIVRKRNQPMTPEAVRDNWEKICDFSNASKPQTIQESTGGIVEVLHKVDSEGISPNRTSHAAPAATSGFVGAVGHKLPSFSSSYTELQSIMYALGVGASVKNPKDLKFVYEGSADFSCLPTFGVIVAQKSMMNGGLAEVPGLSFNFAKALHGEQYLELYKPLPRSGELKCEAVIADILDKGSGVVIVMDVYSYSGKELICYNQFSVFVVGSGGFGGKRTSEKLKAAVAVPNRPPDAVLRDATSLNQAALYRLSGDWNPLHIDPDFASVAGFEKPILHGLCTFGFSARHVLQQFADNDVSRFKAIKVRFAKPVYPGQTLQTEMWKEGNRIHFQTKVHETGDVVISNAYVDLVPASGVSTQTPSEGGELQSALVFGEIGRRLKSVGREVVKKANAVFEWHITKGGTVAAKWTIDLKSGSGEVYQGPAKGSADVTIIISDEDFMEVVFGKLDPQKAFFSGRLKARGNIMLSQKLQMILKDYAKL
B3: Mouse ATP5D in pCMV-Myc, transfected (protein, UniProt Q9D3D9 23-168)
chain: AEAAAAPAPAAGPGQMSFTFASPTQVFFDSANVKQVDVPTLTGAFGILASHVPTLQVLRPGLVVVHTEDGTTTKYFVSSGSVTVNADSSVQLLAEEAVTLDMLDLGAARANLEKAQSELSGAADEAARAEIQIRIEANEALVKALE
B4: ENTPD5, endogenous (co-IP of Fig. 3g; cells or tissue not stated) (enzyme, UniProt O75356 25-428)
chain: NQQTWFEGIFLSSMCPINVSASTLYGIMFDAGSTGTRIHVYTFVQKMPGQLPILEGEVFDSVKPGLSAFVDQPKQGAETVQGLLEVAKDSIPRSHWKKTPVVLKATAGLRLLPEHKAKALLFEVKEIFRKSPFLVPKGSVSIMDGSDEGILAWVTVNFLTGQLHGHRQETVGTLDLGGASTQITFLPQFEKTLEQTPRGYLTSFEMFNSTYKLYTHSYLGFGLKAARLATLGALETEGTDGHTFRSACLPRWLEAEWIFGGVKYQYGGNQEGEVGFEPCYAEVLRVVRGKLHQPEEVQRGSFYAFSYYYDRAVDTDMIDYEKGGILKVEDFERKAREVCDNLENFTSGSPFLCMDLSYITALLKDGFGFADSTVLQLTKKVNNIETGWALGATFHLLQSLGISH
B5: CPT2, endogenous (co-IP of Fig. 3g; cells or tissue not stated) (enzyme, UniProt P23786 26-658)
chain: SAGSGPGQYLQRSIVPTMHYQDSLPRLPIPKLEDTIRRYLSAQKPLLNDGQFRKTEQFCKSFENGIGKELHEQLVALDKQNKHTSYISGPWFDMYLSARDSVVLNFNPFMAFNPDPKSEYNDQLTRATNMTVSAIRFLKTLRAGLLEPEVFHLNPAKSDTITFKRLIRFVPSSLSWYGAYLVNAYPLDMSQYFRLFNSTRLPKPSRDELFTDDKARHLLVLRKGNFYIFDVLDQDGNIVSPSEIQAHLKYILSDSSPAPEFPLAYLTSENRDIWAELRQKLMSSGNEESLRKVDSAVFCLCLDDFPIKDLVHLSHNMLHGDGTNRWFDKSFNLIIAKDGSTAVHFEHSWGDGVAVLRFFNEVFKDSTQTPAVTPQSQPATTDSTVTVQKLNFELTDALKTGITAAKEKFDATMKTLTIDCVQFQRGGKEFLKKQKLSPDAVAQLAFQMAFLRQYGQTVATYESCSTAAFKHGRTETIRPASVYTKRCSEAFVREPSRHSAGELQQMMVECSKYHGQLTKEAAMGQGFDRHLFALRHLAAAKGIILPELYLDPAYGQINHNVLSTSTLSSPAVNLGGFAPVVSDGFGVGYAVHDNWIGCNVSSYPGRNAREFLQCVEKALEDMFDALEGKSIKS
B6: RMND1, endogenous (co-IP of Fig. 3g; cells or tissue not stated) (protein, UniProt Q9NWS8 13-449)
chain: HHILSKAHQCRRIGHLMLKPLKEFENTTCSTLTIRQSLDLFLPDKTASGLNKSQILEMNQKKSDTSMLSPLNAARCQDEKAHLPTMKSFGTHRRVTHKPNLLGSKWFIKILKRHFSSVSTETFVPKQDFPQVKRPLKASRTRQPSRTNLPVLSVNEDLMHCTAFATADEYHLGNLSQDLASHGYVEVTSLPRDAANILVMGVENSAKEGDPGTIFFFREGAAVFWNVKDKTMKHVMKVLEKHEIQPYEIALVHWENEELNYIKIEGQSKLHRGEIKLNSELDLDDAILEKFAFSNALCLSVKLAIWEASLDKFIESIQSIPEALKAGKKVKLSHEEVMQKIGELFALRHRINLSSDFLITPDFYWDRENLEGLYDKTCQFLSIGRRVKVMNEKLQHCMELTDLMRNHLNEKRALRLEWMIVILITIEVMFELGRVFF
B7: HSD17B4, endogenous (co-IP of Fig. 3g; cells or tissue not stated) (enzyme, UniProt P51659 1-736)
chain: MGSPLRFDGRVVLVTGAGAGLGRAYALAFAERGALVVVNDLGGDFKGVGKGSLAADKVVEEIRRRGGKAVANYDSVEEGEKVVKTALDAFGRIDVVVNNAGILRDRSFARISDEDWDIIHRVHLRGSFQVTRAAWEHMKKQKYGRIIMTSSASGIYGNFGQANYSAAKLGLLGLANSLAIEGRKSNIHCNTIAPNAGSRMTQTVMPEDLVEALKPEYVAPLVLWLCHESCEENGGLFEVGAGWIGKLRWERTLGAIVRQKNHPMTPEAVKANWKKICDFENASKPQSIQESTGSIIEVLSKIDSEGGVSANHTSRATSTATSGFAGAIGQKLPPFSYAYTELEAIMYALGVGASIKDPKDLKFIYEGSSDFSCLPTFGVIIGQKSMMGGGLAEIPGLSINFAKVLHGEQYLELYKPLPRAGKLKCEAVVADVLDKGSGVVIIMDVYSYSEKELICHNQFSLFLVGSGGFGGKRTSDKVKVAVAIPNRPPDAVLTDTTSLNQAALYRLSGDWNPLHIDPNFASLAGFDKPILHGLCTFGFSARRVLQQFADNDVSRFKAIKARFAKPVYPGQTLQTEMWKEGNRIHFQTKVQETGDIVISNAYVDLAPTSGTSAKTPSEGGKLQSTFVFEEIGRRLKDIGPEVVKKVNAVFEWHITKGGNIGAKWTIDLKSGSGKVYQGPAKGAADTTIILSDEDFMEVVLGKLDPQKAFFSGRLKARGNIMLSQKLQMILKDYAKL
B8: Mouse ENTPD5 in pCMV-Myc, transfected (enzyme, UniProt Q9WUZ9 25-427)
chain: QQTWFEGVFLSSMCPINVSAGTFYGIMFDAGSTGTRIHVYTFVQKTAGQLPFLEGEIFDSVKPGLSAFVDQPKQGAETVQELLEVAKDSIPRSHWERTPVVLKATAGLRLLPEQKAQALLLEVEEIFKNSPFLVPDGSVSIMDGSYEGILAWVTVNFLTGQLHGRGQETVGTLDLGGASTQITFLPQFEKTLEQTPRGYLTSFEMFNSTFKLYTHSYLGFGLKAARLATLGALEAKGTDGHTFRSACLPRWLEAEWIFGGVKYQYGGNQEGEMGFEPCYAEVLRVVQGKLHQPEEVRGSAFYAFSYYYDRAADTHLIDYEKGGVLKVEDFERKAREVCDNLGSFSSGSPFLCMDLTYITALLKDGFGFADGTLLQLTKKVNNIETGWALGATFHLLQSLGITS
B9: Mouse CPT2 in pCMV-Myc, transfected (enzyme, UniProt P52825 26-658)
chain: SAVSGPAEYLQHSIVPTMHYQDSLPRLPIPKLEDTMKRYLSAQKPLLNDSQFRKTEVLCKDFENGIGKELHAHLLAQDKQNKHTSYISGPWFDMYLTARDSVVLNFNPFMAFNPDPKSEYNDQLTRATNLTVSAVRFLKTLRAGLLEPEVFHLNPARSDTDAFKRLIRFVPSSLSWYGAYLVNAYPLDMSQYFRLFNSTRIPKPSRDELFTDTKARHLLVLRKGHFYVFDVLDQDGNIVNPSEIQAHLKYILSDSSPVPEFPLAYLTSENRDVWAELRQKLIHGGNEETLRKVDSAVFCLCLDDFPMKDLVHLSHTMLHGDGTNRWFDKSFNLIVAKDGTAAVHFEHAWGDGVAVLRFFNEVFRDSTQTPAIAPQSQPAATDSSVSVQKLSFKLSSALKAGVTAAKEKFDATMKTLTIDAIQFQRGGKEFLKKKKLSPDAVAQLAFQMAFLRQYGQTVATYESCSTAAFKHGRTETIRPASIFTKRCSEAFVREPSKHSVGELQHMMAECSKYHGQLTKEAAMGQGFDRHLFALRYLAAARGVTLPELYQDPAYQRINHNILSTSTLSSPAVSLGGFAPVVPDGFGIAYAVHDDWIGCNVSSYSGRNAREFLHCVQKCLEDMFDALEGKAIKT

Amino acid sequences for entries named in this document (tags omitted).
UniProt Q86TM6: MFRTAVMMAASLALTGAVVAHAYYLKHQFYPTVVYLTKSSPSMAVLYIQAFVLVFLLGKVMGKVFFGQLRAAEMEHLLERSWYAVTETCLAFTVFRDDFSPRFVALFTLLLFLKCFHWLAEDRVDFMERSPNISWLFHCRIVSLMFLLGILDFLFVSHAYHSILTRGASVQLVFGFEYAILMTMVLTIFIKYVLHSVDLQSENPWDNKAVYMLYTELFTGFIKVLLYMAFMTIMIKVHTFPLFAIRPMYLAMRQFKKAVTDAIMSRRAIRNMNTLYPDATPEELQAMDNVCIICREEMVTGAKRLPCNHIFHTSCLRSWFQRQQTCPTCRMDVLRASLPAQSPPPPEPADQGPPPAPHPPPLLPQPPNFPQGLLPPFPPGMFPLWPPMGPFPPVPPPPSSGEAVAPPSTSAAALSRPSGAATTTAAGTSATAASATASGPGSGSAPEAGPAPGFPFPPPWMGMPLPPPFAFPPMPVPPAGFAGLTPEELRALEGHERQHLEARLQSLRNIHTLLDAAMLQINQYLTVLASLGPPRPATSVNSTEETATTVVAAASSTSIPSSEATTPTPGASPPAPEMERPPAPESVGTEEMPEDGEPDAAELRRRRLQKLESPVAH

Assays:
[1] = biological target: HRD1, full-length expression plasmid, transfected (UniProt Q86TM6); test: co-IP; transiently transfected HEK293 cells, lysed 24 h after transfection; immunoprecipitation with protein-G sepharose and immunoblotting
[2] = biological target: HRD1, endogenous (co-IP of Fig. 3g; cells or tissue not stated) (UniProt Q86TM6); test: co-IP; endogenous proteins; anti-HRD1 immunoprecipitates against normal rabbit IgG controls, immunoblotting; cells or tissue not stated

Row | Binder | binding [1] | binding [2]
1 | B1 | binds | 
2 | B2 | binds | 
3 | B3 | binds | 
4 | B4 |  | binds
5 | B5 |  | binds
6 | B6 |  | binds
7 | B7 |  | binds
8 | B8 | binds | 
9 | B9 | binds | 

From paper PMC6131148
